The text below walks through data of paper PMC3776929.

These are yes or no findings as the source states them, for the method shown. Binding seen in cells or lysates may run through a third protein. Binding calls can cover weak binding; strength is not graded here.

The test has as its target Swr1 with an ∼400 amino acid truncation, as in the subcomplex SWR1-ΔN-Mod (S. cerevisiae). Put plainly: co-IP; FLAG affinity purification of SWR1 (or a subcomplex) from S. cerevisiae, eluted with 3× FLAG peptide; SDS-PAGE (4%-12% Bis-Tris), Coomassie or SYPRO Orange stain; band intensities normalised for protein size for the stoichiometry.

B1: Swc4 (protein, UniProt P53201 1-476)
chain: MSSSDIFDVLNIKQKSRSPTNGQVSVPSSSAANRPKPQVTGMQRELFNLLGENQPPVVIKSGNNFKEKMLSTSKPSPWSFVEFKANNSVTLRHWVKGSKELIGDTPKESPYSKFNQHLSIPSFTKEEYEAFMNENEGTQKSVESEKNHNENFTNEKKDESKNSWSFEEIEYLFNLCKKYDLRWFLIFDRYSYNNSRTLEDLKEKFYYTCRNYFKASDPSNPLLSSLNFSAEKEIERKKYLQRLLSRSAAEIAEEEALVVESKKFEMAAKRTLAERESLLRLLDSPHSDQTITQYLTSQGMSQLYNALLADKTRKRKHDLNIPENPWMKQQQQFAQHRQLQQLNVKKSEVKENLSPKKTKRQRQEMQTALKRKSESAYAEQLLKDFNSDERKALGVITHGEKLSPGVYLRSTKLSTFKPALQNKILAILQELSLPSRPVMPSFDVMERQEELLKKINTLIDLKKHVDKYEAGMSITK
As for B1, the binding result is given as “no binding”.

B2: Swc3 (protein, UniProt P31376 1-625)
chain: MPAVLRTRSKESSIEQKPASRTRTRSRRGKRGRDDDDDDDDEESDDAYDEVGNDYDEYASRAKLATNRPFEIVAGLPASVELPNYNSSLTHPQSIKNSGVLYDSLVSSRRTWVQGEMFELYWRRPKKIVSESTPAATESPTSGTIPLIRDKMQKMCDCVMSGGPHTFKVRLFILKNDKIEQKWQDEQELKKKEKELKRKNDAEAKRLRMEERKRQQMQKKIAKEQKLQLQKENKAKQKLEQEALKLKRKEEMKKLKEQNKNKQGSPSSSMHDPRMIMNLNLMAQEDPKLNTLMETVAKGLANNSQLEEFKKFIEIAKKRSLEENPVNKRPSVTTTRPAPPSKAKDVAEDHRLNSITLVKSSKTAATEPEPKKADDENAEKQQSKEAKTTAESTQVDVKKEEEDVKEKGVKSEDTQKKEDNQVVPKRKRRKNAIKEDKDMQLTAFQQKYVQGAEIILEYLEFTHSRYYLPKKSVVEFLEDTDEIIISWIVIHNSKEIEKFKTKKIKAKLKADQKLNKEDAKPGSDVEKEVSFNPLFEADCPTPLYTPMTMKLSGIHKRFNQIIRNSVSPMEEVVKEMEKILQIGTRLSGYNLWYQLDGYDDEALSESLRFELNEWEHAMRSRRHKR
On to B2, for which the binding result is “binds”.

B3: Yaf9 (protein, UniProt P53930 1-226)
chain: MAPTISKRIKTLSVSRPIIYGNTAKKMGSVKPPNAPAEHTHLWTIFVRGPQNEDISYFIKKVVFKLHDTYPNPVRSIEAPPFELTETGWGEFDINIKVYFVEEANEKVLNFYHRLRLHPYANPVPNSDNGNEQNTTDHNSKDAEVSSVYFDEIVFNEPNEEFFKILMSRPGNLLPSNKTDDCVYSKQLEQEEIDRIEIGIEKVDKEIDELKQKLENLVKQEAINGS
As to B3, the binding entry is “no binding”.

B4: Bdf1 (protein, UniProt P35817 1-686)
chain: MTDITPVQNDVDVNGNNVNDDVSSNLKRPIDQGDPSNGLAEEENPANNQLHLKKARLDGDALTSSPAGLAENGIEGATLAANGENGYNATGSGAEDEQQGLKKEEGGQGTKQEDLDENSKQELPMEVPKEPAPAPPPEPDMNNLPQNPIPKHQQKHALLAIKAVKRLKDARPFLQPVDPVKLDIPFYFNYIKRPMDLSTIERKLNVGAYEVPEQITEDFNLMVNNSIKFNGPNAGISQMARNIQASFEKHMLNMPAKDAPPVIAKGRRSSAQEDAPIVIRRAQTHNGRPKRTIHPPKSKDIYPYESKKPKSKRLQQAMKFCQSVLKELMAKKHASYNYPFLEPVDPVSMNLPTYFDYVKEPMDLGTIAKKLNDWQYQTMEDFERDVRLVFKNCYTFNPDGTIVNMMGHRLEEVFNSKWADRPNLDDYDSDEDSRTQGDYDDYESEYSESDIDETIITNPAIQYLEEQLARMKVELQQLKKQELEKIRKERRLARGSKKRGKRSKGRSGSKNASSKGRRDKKNKLKTVVTYDMKRIITERINDLPTSKLERAIDIIKKSMPNISEDDEVELDLDTLDNHTILTLYNTFFRQYESSSGASNGLDGTSGVTRDASSLSPTSAGSRKRRSKALSQEEQSRQIEKIKNKLAILDSASPLSQNGSPGQIQSAAHNGFSSSSDDDVSSESEEE
Regarding B4, the binding result is on record as “no binding”.

B5: Arp4 (protein, UniProt P80428 1-489)
chain: MSNAALQVYGGDEVSAVVIDPGSYTTNIGYSGSDFPQSILPSVYGKYTADEGNKKIFSEQSIGIPRKDYELKPIIENGLVIDWDTAQEQWQWALQNELYLNSNSGIPALLTEPVWNSTENRKKSLEVLLEGMQFEACYLAPTSTCVSFAAGRPNCLVVDIGHDTCSVSPIVDGMTLSKSTRRNFIAGKFINHLIKKALEPKEIIPLFAIKQRKPEFIKKTFDYEVDKSLYDYANNRGFFQECKETLCHICPTKTLEETKTELSSTAKRSIESPWNEEIVFDNETRYGFAEELFLPKEDDIPANWPRSNSGVVKTWRNDYVPLKRTKPSGVNKSDKKVTPTEEKEQEAVSKSTSPAANSADTPNETGKRPLEEEKPPKENNELIGLADLVYSSIMSSDVDLRATLAHNVVLTGGTSSIPGLSDRLMTELNKILPSLKFRILTTGHTIERQYQSWLGGSILTSLGTFHQLWVGKKEYEEVGVERLLNDRFR
With B5, the binding result is “no binding”.
